Experimental data as given in PubChem BioAssay AID328 (DTP/NCI, 2004).
The list is a part of this screen's results and no random one: it is rich in T/C values a quarter to a half above the control, in often repeated tests (any T/C) and in doses without a T/C. Other doses and runs of a compound stand elsewhere. T/C gives the treated animals as a percentage of the vehicle group. Some entries give survivors of the animals treated and no T/C: the source holds a T/C of zero for them, seemingly a mark for toxic or unscored doses. Some survivor counts are full or nearly so, which does not show that the dose was tolerated: the source hardly ever lists a survival T/C far under the control, and the zero likely stands for such cases as well. Survivors were counted at the toxicity check, usually on the fifth day, unless a day is given; later deaths do not show. Schedule codes are those of the source, taken here to give the interval after Q, in days (D) or hours (H), and the number of doses after X. Some doses were run more than once; the values are given in rising order. Where survival is the endpoint, the PubChem record calls one and a half times the control and up active, and a quarter to a half above the control has no call in these data; cut-offs in other NCI protocols can differ.

Test system: BDF1 mice, P388 leukemia ip, median survival T/C
Assay: NCI In Vivo Anticancer Drug Screen. Data for tumor model P388 Leukemia (intraperitoneal) in B6D2F1 (BDF1) mice
Conditions: T/C endpoint: median survival time, higher T/C = longer survival
Summary of the method: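 Survival ratio, drug arm over vehicle arm, in mice with a transplanted tumour.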

[1] = dose: 12.5 mg/kg/injection, schedule: Q01DX009 (ip), vehicle: water
[2] = dose: 100.0 mg/kg/injection, schedule: Q04DX003 (ip), vehicle: water

C[n+]1cc2c3ccccc3c(N)cc2c2ccccc21
T/C (dose: 1.56 mg/kg/injection, schedule: Q01DX009 (ip), vehicle: water): 132 % of control | T/C (dose: 6.25 mg/kg/injection, schedule: Q01DX009 (ip), vehicle: water): 132 % of control | T/C [1]: 132 % of control | survivor count [1]: 4 of 6 | T/C (dose: 25.0 mg/kg/injection, schedule: Q04DX003 (ip), vehicle: water): 127 % of control | survivor count (dose: 50.0 mg/kg/injection, schedule: Q01DX009 (ip), vehicle: water): 3 of 6 | T/C (dose: 50.0 mg/kg/injection, schedule: Q04DX003 (ip), vehicle: water): 136 and 138 % of control | T/C [2]: 129 % of control | survivor count (dose: 200.0 mg/kg/injection, schedule: Q04DX003 (ip), vehicle: water): 4 of 6 and 6 of 6

CC[N+](CC)(CC)CCCC[N+](CC)(CC)CC
survivor count (dose: 75.0 mg/kg/injection, schedule: Q01DX009 (ip), vehicle: water): 2 of 6 | survivor count [2]: 3 of 6

O=P(N1CC=CCC1)(N1CC1)N1CC1
survivor count (dose: 50.0 mg/kg/injection, schedule: Q01DX009 (ip), vehicle: saline): 5 of 6 | survivor count (dose: 100.0 mg/kg/injection, schedule: Q04DX003 (ip), vehicle: saline): 4 of 6 | survivor count (dose: 200.0 mg/kg/injection, schedule: Q04DX003 (ip), vehicle: saline): 3 of 6 | survivor count (dose: 400.0 mg/kg/injection, schedule: Q04DX003 (ip), vehicle: saline): 0 of 6

Nc1nc(-c2c[nH]c(=O)[nH]c2=O)cs1
survivor count (dose: 200.0 mg/kg/injection, schedule: Q01DX009 (ip), vehicle: saline with Tween-80): 3 of 6
